The record followed here is patent publication US20080023859A1 (Toagosei Co., Ltd., priority 2003, published 2008).

This data set can be described thus: general procedure: Fmoc solid-phase peptide synthesis; HATU/DIEA. As to conditions: conjugation step; for final HPLC purity: HPLC 0.1% TFA water:methanol=1:1.

As for “NH2-Glu(pAP-Man)-Val-Pro-Gly-Val-Gly-Val-Pro-Gly-Val-Gly-pAP-Man”, the conjugation yield worked out at 21.3% and the “final HPLC purity” value was determined as 95.1%.

Take “Ac-Val-Pro-Gly-Val-Gly-Val-Pro-Gly-Val-Gly-pAP-Man”: the conjugation yield stood at 73% and the “final HPLC purity” value is recorded as 97.2%.

As for “NH2-Val-Pro-Gly-Val-Gly-Val-Pro-Gly-Val-Gly-pAP-Man”, the conjugation yield was determined as 4.4% and the “final HPLC purity” value stood at 98.3%.
